Measurements: the supplement of paper PMC6411743
± gives the standard deviation of the averaged measurements. The entries are a selection whose mix differs from that of the whole data set.

Sequences of proteins named here, by UniProt entry; tags and fusion partners are left off. A change or cut given only in a name is not applied to a line headed by its entry.
UniProt Q9BYT3: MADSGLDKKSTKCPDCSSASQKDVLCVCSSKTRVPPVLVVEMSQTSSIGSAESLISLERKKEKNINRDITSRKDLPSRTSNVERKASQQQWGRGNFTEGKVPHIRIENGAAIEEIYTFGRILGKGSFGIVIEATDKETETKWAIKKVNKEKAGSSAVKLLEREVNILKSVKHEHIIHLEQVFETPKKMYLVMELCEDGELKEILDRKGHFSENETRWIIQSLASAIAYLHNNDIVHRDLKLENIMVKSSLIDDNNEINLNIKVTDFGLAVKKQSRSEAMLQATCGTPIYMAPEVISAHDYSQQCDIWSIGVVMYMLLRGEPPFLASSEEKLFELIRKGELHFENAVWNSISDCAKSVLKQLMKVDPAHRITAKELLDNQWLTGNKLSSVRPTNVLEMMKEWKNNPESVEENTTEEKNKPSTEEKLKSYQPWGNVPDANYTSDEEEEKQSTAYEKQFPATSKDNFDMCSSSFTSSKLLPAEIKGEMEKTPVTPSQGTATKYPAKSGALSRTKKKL
UniProt Q9BQ69: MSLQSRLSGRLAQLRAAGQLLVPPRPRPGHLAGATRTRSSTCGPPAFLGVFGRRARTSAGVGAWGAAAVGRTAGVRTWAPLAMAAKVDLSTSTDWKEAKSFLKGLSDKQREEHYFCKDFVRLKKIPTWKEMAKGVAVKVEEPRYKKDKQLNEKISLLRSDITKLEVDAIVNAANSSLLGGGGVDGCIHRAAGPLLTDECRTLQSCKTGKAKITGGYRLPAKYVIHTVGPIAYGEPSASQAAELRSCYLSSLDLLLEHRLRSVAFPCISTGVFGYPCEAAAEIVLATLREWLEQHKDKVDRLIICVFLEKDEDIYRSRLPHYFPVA
UniProt Q9BRT6: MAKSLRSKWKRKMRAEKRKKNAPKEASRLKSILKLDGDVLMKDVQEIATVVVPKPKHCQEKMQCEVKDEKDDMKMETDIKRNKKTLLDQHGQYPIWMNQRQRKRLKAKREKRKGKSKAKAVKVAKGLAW
UniProt Q9BTK6, whole entry: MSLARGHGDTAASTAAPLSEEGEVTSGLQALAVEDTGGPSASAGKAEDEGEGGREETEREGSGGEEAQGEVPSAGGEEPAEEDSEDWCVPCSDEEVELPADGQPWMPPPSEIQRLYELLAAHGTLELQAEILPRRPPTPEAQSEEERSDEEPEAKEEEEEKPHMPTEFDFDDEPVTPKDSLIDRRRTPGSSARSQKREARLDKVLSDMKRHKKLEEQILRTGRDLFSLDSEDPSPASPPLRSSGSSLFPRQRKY
UniProt Q9BRZ2: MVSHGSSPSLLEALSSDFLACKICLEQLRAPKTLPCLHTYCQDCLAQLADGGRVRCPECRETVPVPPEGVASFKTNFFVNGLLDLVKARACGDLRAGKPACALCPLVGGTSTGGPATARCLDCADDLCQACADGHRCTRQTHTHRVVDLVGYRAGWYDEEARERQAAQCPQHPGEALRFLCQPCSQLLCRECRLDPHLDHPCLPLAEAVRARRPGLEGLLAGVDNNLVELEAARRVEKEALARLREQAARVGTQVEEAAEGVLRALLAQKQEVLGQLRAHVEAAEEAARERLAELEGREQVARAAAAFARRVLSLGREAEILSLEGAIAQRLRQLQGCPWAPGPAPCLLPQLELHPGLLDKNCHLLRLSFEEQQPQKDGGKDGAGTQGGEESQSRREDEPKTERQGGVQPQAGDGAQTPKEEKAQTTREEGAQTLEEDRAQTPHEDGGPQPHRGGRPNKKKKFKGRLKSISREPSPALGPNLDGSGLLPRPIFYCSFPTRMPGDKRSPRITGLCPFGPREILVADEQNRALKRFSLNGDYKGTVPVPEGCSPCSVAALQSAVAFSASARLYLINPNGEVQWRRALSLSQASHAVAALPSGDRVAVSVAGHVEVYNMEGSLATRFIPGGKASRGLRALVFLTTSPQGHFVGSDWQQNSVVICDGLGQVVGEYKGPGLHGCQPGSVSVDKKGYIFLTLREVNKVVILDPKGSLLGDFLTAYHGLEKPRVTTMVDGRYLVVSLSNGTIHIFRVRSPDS
UniProt Q9BQT9: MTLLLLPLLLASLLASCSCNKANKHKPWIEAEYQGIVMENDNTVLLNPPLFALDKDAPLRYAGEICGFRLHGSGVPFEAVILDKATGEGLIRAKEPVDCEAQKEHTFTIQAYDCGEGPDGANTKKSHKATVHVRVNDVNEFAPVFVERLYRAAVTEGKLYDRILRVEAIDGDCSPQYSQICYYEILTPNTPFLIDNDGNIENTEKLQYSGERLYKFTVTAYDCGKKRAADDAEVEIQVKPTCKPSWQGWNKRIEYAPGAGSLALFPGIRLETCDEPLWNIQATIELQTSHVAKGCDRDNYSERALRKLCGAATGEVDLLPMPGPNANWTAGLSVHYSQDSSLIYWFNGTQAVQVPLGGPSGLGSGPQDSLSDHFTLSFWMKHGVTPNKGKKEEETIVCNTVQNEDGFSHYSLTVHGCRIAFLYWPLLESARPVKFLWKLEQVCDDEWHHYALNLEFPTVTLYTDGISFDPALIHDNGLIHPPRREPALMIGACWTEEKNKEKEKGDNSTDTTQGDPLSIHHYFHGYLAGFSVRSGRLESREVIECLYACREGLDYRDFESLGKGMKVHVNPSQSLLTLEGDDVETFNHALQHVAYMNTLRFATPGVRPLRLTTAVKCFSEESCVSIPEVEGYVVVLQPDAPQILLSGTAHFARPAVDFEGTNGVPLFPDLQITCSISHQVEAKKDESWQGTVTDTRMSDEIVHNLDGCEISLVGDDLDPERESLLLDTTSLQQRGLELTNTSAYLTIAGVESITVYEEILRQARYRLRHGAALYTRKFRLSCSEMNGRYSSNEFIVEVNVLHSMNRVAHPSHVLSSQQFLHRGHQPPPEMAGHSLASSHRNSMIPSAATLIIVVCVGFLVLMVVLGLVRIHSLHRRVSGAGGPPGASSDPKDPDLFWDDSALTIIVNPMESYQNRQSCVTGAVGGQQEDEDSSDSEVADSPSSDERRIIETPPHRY
UniProt Q9BW62: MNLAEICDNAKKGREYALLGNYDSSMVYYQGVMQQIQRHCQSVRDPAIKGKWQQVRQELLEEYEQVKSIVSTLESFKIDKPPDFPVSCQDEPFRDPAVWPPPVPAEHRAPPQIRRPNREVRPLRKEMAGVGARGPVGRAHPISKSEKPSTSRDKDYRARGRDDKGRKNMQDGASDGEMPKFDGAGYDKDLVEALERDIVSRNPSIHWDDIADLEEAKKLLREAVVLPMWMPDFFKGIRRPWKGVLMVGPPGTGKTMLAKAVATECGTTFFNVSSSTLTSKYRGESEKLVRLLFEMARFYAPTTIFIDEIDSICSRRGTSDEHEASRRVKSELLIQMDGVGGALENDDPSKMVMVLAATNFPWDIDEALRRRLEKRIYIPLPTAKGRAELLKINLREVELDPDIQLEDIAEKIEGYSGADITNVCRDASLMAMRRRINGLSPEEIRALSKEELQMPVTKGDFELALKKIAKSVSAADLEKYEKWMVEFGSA
UniProt Q9BYE7: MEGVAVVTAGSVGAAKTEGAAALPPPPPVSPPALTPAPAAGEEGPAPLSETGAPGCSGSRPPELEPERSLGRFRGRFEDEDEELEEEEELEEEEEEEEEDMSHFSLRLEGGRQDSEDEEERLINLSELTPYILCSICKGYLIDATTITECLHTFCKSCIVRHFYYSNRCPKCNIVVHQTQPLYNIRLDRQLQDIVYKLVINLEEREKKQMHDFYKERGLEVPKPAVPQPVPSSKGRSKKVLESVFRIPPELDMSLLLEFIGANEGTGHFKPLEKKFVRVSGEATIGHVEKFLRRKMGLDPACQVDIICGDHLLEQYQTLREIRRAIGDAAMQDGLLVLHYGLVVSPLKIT
UniProt Q9BZ23: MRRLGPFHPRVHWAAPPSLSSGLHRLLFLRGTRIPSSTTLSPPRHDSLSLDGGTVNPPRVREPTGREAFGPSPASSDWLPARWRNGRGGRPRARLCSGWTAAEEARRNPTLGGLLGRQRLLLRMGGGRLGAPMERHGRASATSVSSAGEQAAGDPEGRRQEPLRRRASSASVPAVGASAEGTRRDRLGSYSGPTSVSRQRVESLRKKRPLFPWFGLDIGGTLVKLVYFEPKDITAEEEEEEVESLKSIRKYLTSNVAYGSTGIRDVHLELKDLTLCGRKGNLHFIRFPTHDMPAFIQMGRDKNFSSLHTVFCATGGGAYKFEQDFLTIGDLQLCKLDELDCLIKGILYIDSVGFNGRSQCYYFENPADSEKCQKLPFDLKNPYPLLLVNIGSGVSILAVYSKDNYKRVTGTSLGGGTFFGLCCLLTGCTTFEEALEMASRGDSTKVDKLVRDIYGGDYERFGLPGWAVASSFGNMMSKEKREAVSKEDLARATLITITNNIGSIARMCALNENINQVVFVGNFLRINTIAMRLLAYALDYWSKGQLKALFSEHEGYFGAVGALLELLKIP
UniProt Q9BTC0, whole entry: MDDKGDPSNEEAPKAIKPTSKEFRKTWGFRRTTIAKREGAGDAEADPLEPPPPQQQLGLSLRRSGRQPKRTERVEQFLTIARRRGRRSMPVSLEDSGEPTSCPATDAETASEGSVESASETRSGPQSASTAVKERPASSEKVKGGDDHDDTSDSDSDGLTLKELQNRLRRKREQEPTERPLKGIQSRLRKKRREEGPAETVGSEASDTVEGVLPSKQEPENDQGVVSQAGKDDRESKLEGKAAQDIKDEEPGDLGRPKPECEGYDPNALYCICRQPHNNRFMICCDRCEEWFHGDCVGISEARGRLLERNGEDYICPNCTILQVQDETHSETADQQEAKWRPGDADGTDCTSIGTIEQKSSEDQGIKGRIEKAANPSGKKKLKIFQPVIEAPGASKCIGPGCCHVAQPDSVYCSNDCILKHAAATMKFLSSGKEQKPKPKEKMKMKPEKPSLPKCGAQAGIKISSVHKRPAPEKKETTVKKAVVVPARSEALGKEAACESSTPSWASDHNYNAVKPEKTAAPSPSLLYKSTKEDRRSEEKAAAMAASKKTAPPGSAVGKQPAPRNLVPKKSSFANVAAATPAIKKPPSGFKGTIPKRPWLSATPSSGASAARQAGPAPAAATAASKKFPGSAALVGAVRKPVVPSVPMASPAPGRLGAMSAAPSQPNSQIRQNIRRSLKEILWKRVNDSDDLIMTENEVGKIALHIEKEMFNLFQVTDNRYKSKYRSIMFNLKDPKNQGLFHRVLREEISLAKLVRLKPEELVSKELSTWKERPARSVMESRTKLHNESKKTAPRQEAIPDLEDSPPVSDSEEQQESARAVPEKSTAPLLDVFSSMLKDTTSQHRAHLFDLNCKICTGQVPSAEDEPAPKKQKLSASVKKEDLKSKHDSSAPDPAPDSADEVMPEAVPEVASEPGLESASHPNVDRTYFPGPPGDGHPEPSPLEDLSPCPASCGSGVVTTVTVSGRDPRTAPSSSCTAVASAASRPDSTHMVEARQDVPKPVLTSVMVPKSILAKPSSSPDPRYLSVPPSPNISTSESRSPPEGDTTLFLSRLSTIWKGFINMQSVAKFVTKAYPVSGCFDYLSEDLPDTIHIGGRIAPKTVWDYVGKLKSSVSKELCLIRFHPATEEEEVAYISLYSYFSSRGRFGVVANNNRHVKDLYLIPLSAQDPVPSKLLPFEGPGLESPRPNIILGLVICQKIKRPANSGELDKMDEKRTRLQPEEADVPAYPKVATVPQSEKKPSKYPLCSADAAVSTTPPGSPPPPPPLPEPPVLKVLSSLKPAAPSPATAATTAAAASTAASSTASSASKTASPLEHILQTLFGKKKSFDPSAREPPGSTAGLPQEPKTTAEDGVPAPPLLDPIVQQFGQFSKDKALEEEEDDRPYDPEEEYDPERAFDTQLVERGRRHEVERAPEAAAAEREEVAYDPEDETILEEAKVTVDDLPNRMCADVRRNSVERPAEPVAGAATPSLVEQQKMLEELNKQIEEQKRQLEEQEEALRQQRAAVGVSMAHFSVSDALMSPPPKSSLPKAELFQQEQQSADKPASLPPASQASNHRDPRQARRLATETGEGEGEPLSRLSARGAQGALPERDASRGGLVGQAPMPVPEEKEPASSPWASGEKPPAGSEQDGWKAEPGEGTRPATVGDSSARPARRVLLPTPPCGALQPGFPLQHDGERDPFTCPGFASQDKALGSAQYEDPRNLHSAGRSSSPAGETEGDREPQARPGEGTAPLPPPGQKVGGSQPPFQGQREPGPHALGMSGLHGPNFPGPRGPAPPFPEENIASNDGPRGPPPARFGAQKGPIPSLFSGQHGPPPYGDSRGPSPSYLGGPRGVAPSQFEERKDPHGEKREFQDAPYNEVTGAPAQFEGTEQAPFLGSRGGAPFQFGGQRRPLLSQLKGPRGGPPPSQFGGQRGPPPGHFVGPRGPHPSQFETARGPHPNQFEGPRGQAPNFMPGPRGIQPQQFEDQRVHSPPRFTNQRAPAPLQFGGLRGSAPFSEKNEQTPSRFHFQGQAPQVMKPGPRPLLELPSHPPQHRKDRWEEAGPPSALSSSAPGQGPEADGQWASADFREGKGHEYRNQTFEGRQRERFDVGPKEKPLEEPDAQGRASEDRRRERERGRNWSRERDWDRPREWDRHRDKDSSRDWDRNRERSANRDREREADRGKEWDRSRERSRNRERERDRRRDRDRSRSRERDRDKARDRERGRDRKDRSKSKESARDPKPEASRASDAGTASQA

Compound: Nc1ncnc2c1ncn2[C@@H]1O[C@H](COP(=O)(O)OP(=O)(O)NP(=O)(O)O)[C@@H](O)[C@H]1O [adenylyl imidodiphosphate]
Assay: NP40-soluble protein abundance relative to vehicle (solubility fold change) (ratio); higher = more soluble protein in presence of AMP-PNP
How it was run: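 Jurkat crude lysate prepared with a Dounce homogeniser was treated at eight concentrations spanning 0.1 to 10 mM, 10 min at room temperature then 3 min at 37 °C. Solubilisation with 0.8% NP40 and benzonase and ultracentrifugation preceded TMT labelling of the supernatant for LC-MS/MS. Fold change against the detergent-processed vehicle was determined per replicate from vsn-normalised intensities, across three independent experiments.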

Target	NP40-soluble protein abundance (concentration: 1mM)	NP40-soluble protein abundance (concentration: 2mM)	NP40-soluble protein abundance (concentration: 4mM)	NP40-soluble protein abundance (concentration: 6mM)	NP40-soluble protein abundance (concentration: 8mM)	NP40-soluble protein abundance (concentration: 10mM)
UniProt Q96RR4 and related entries	1.01 ± 0.016	1.05 ± 0.024	0.999 ± 0.046	0.939 ± 0.025	0.941 ± 0.012	0.982 ± 0.017
NABP2 (UniProt Q9BQ15)	1.02 ± 0.093	1.07 ± 0.071	1.04 ± 0.036	1.06 ± 0.064	1.08 ± 0.066	1.12 ± 0.092
MED18 (UniProt Q9BUE0)	0.989 ± 0.028	0.959 ± 0.013	0.962 ± 0.022	0.933 ± 0.059	0.911 ± 0.059	0.907 ± 0.036
UniProt Q9BYT3 and related entries	1.01 ± 0.014	1.04 ± 0.032	0.991 ± 0.049	0.989 ± 0.047	0.992 ± 0.023	0.9938 ± 0.0066
SF3B5 (UniProt Q9BWJ5)	0.95 ± 0.028	0.976 ± 0.066	0.97 ± 0.052	0.973 ± 0.01	0.984 ± 0.048	1.02 ± 0.054
GNB1L (UniProt Q9BYB4)	0.994 ± 0.012	0.944 ± 0.08	0.977 ± 0.011	0.951 ± 0.012	0.975 ± 0.02	0.934 ± 0.03
MACROD1 (UniProt Q9BQ69)	1.01 ± 0.066	1.04 ± 0.069	0.966 ± 0.094	0.975 ± 0.05	0.982 ± 0.062	0.949 ± 0.095
SH3GL2 (UniProt Q99962)	1.04 ± 0.026	1.04 ± 0.044	1.03 ± 0.057	0.992 ± 0.029	1.01 ± 0.03	0.998 ± 0.03
LLPH (UniProt Q9BRT6)	1.06 ± 0.025	1.087 ± 0.0039	1.11 ± 0.056	1.18 ± 0.045	1.13 ± 0.059	1.24 ± 0.026
UniProt Q96SD1 and related entries	1.01 ± 0.027	1.06 ± 0.1	0.997 ± 0.065	0.994 ± 0.046	0.952 ± 0.026	0.97 ± 0.032
UniProt Q9BVC5 and related entries	0.915 ± 0.024	0.987 ± 0.026	0.966 ± 0.025	1.03 ± 0.025	1.036 ± 0.0066	1.06 ± 0.065
TSG101 (UniProt Q99816)	0.991 ± 0.018	0.995 ± 0.033	0.964 ± 0.025	0.978 ± 0.013	0.959 ± 0.047	0.928 ± 0.048
NUP85 (UniProt Q9BW27)	0.992 ± 0.047	0.89 ± 0.056	0.959 ± 0.013	0.949 ± 0.038	0.967 ± 0.018	0.94 ± 0.032
HINT2 (UniProt Q9BX68)	1.02 ± 0.015	1.002 ± 0.0042	0.978 ± 0.019	0.988 ± 0.013	0.991 ± 0.022	0.98 ± 0.044
BDH2 (UniProt Q9BUT1)	1.02 ± 0.046	1.05 ± 0.12	0.999 ± 0.073	1.04 ± 0.048	1.03 ± 0.052	1.02 ± 0.042
UniProt Q99871 and related entries	0.95 ± 0.026	0.9473 ± 0.0069	0.9167 ± 0.005	0.903 ± 0.03	0.875 ± 0.046	0.876 ± 0.058
UniProt Q9BSW2-2	1.04 ± 0.026	1.08 ± 0.026	1.07 ± 0.014	1.01 ± 0.056	1.01 ± 0.046	1.03 ± 0.059
UniProt Q99733 and related entries	1.02 ± 0.012	1.04 ± 0.076	1 ± 0.023	1.05 ± 0.071	1.05 ± 0.07	1.07 ± 0.1
MRPL13 (UniProt Q9BYD1)	0.993 ± 0.073	1.01 ± 0.038	1.02 ± 0.12	0.964 ± 0.13	0.959 ± 0.071	0.967 ± 0.1
RBCK1 (UniProt Q9BYM8)	1.005 ± 0.0061	0.989 ± 0.036	0.974 ± 0.035	0.928 ± 0.013	0.911 ± 0.016	0.935 ± 0.032

Target	NP40-soluble protein abundance (concentration: 1mM)	NP40-soluble protein abundance (concentration: 2mM)	NP40-soluble protein abundance (concentration: 4mM)	NP40-soluble protein abundance (concentration: 6mM)	NP40-soluble protein abundance (concentration: 8mM)	NP40-soluble protein abundance (concentration: 10mM)
UniProt Q9BRP8 and related entries	1.03 ± 0.02	1.09 ± 0.066	1.02 ± 0.04	1.02 ± 0.029	0.997 ± 0.0032	1.01 ± 0.054
UniProt Q9BYG3	1.02 ± 0.024	1.07 ± 0.042	1.07 ± 0.024	1.09 ± 0.016	1.09 ± 0.029	1.12 ± 0.035
DHRS4 (UniProt Q9BTZ2)	0.935 ± 0.029	0.91 ± 0.029	0.96 ± 0.05	0.996 ± 0.078	0.995 ± 0.048	0.995 ± 0.051
UniProt Q9BTK6	0.962 ± 0.026	0.998 ± 0.023	0.9633 ± 0.002	0.95 ± 0.022	0.968 ± 0.022	0.946 ± 0.019
TMEM109 (UniProt Q9BVC6)	0.9777 ± 0.0087	0.971 ± 0.043	0.935 ± 0.013	0.989 ± 0.022	0.992 ± 0.036	0.955 ± 0.027
QTRT1 (UniProt Q9BXR0)	0.981 ± 0.019	0.913 ± 0.1	0.997 ± 0.018	0.953 ± 0.023	0.999 ± 0.02	0.939 ± 0.012
HIRIP3 (UniProt Q9BW71)	1.05 ± 0.033	1.18 ± 0.12	1.11 ± 0.045	1.19 ± 0.024	1.14 ± 0.021	1.23 ± 0.023
PAFAH2 (UniProt Q99487)	1.01 ± 0.045	0.963 ± 0.05	0.99 ± 0.023	0.973 ± 0.033	0.977 ± 0.01	0.971 ± 0.0095
PIK3R4 (UniProt Q99570)	0.959 ± 0.022	0.917 ± 0.078	0.935 ± 0.017	0.917 ± 0.04	0.929 ± 0.033	0.879 ± 0.038
UniProt Q9BWF3 and related entries	1.08 ± 0.017	1.11 ± 0.043	1.07 ± 0.094	1.01 ± 0.032	1 ± 0.023	1.04 ± 0.08
TRIM56 (UniProt Q9BRZ2)	0.975 ± 0.012	0.975 ± 0.056	0.967 ± 0.048	0.935 ± 0.062	0.897 ± 0.072	0.927 ± 0.081
UniProt Q96RN5 and related entries	1.02 ± 0.035	1.09 ± 0.14	1.01 ± 0.055	0.982 ± 0.022	0.995 ± 0.027	0.982 ± 0.03
ITPA (UniProt Q9BY32)	1.03 ± 0.033	1.06 ± 0.04	1.03 ± 0.051	1.04 ± 0.048	1.04 ± 0.077	1.05 ± 0.097
FUT8 (UniProt Q9BYC5)	0.973 ± 0.013	0.992 ± 0.027	0.964 ± 0.013	0.971 ± 0.063	0.979 ± 0.031	0.983 ± 0.043
UniProt Q9BUR4	1.01 ± 0.011	1.04 ± 0.015	1.04 ± 0.017	1.02 ± 0.044	1.01 ± 0.0067	1.05 ± 0.012
UniProt Q99504 and related entries	0.995 ± 0.044	1.02 ± 0.04	0.99 ± 0.035	1.02 ± 0.012	1.02 ± 0.013	1.02 ± 0.031
SORT1 (UniProt Q99523)	0.99 ± 0.034	1.05 ± 0.089	0.995 ± 0.063	1.03 ± 0.055	1.03 ± 0.036	1.03 ± 0.047
AGPAT1 (UniProt Q99943)	1.02 ± 0.035	0.977 ± 0.015	1 ± 0.033	0.991 ± 0.029	0.994 ± 0.023	0.954 ± 0.048
UniProt Q99873-3|Q99873-4	0.955 ± 0.064	0.812 ± 0.13	0.9148 ± 0.0045	0.889 ± 0.033	0.957 ± 0.033	0.847 ± 0.059
UniProt Q9BQT9 and related entries	1.01 ± 0.031	1.04 ± 0.035	1.02 ± 0.042	0.985 ± 0.049	0.976 ± 0.022	1.01 ± 0.03

Target	NP40-soluble protein abundance (concentration: 1mM)	NP40-soluble protein abundance (concentration: 2mM)	NP40-soluble protein abundance (concentration: 4mM)	NP40-soluble protein abundance (concentration: 6mM)	NP40-soluble protein abundance (concentration: 8mM)	NP40-soluble protein abundance (concentration: 10mM)
KATNAL1 (UniProt Q9BW62)	1.02 ± 0.03	0.993 ± 0.041	0.9898 ± 0.0076	0.9557 ± 0.00015	0.949 ± 0.018	0.943 ± 0.039
PARK7 (UniProt Q99497)	1.01 ± 0.017	1.03 ± 0.019	0.962 ± 0.043	0.969 ± 0.022	0.926 ± 0.032	0.934 ± 0.08
PCGF6 (UniProt Q9BYE7)	1.01 ± 0.022	0.997 ± 0.026	0.969 ± 0.024	0.995 ± 0.02	0.986 ± 0.03	0.982 ± 0.02
UniProt Q9BRJ7 and related entries	1.01 ± 0.036	1.01 ± 0.022	1.03 ± 0.043	1.03 ± 0.036	1.04 ± 0.077	1.05 ± 0.053
UniProt Q9BXW9 and related entries	0.998 ± 0.052	1.02 ± 0.029	0.984 ± 0.043	1.01 ± 0.029	0.943 ± 0.033	1 ± 0.031
IFT140 (UniProt Q96RY7)	0.995 ± 0.025	0.966 ± 0.046	0.971 ± 0.017	0.944 ± 0.034	0.919 ± 0.018	0.906 ± 0.029
UniProt Q9BU61 and related entries	0.956 ± 0.031	0.898 ± 0.07	0.9403 ± 0.0089	0.957 ± 0.06	0.984 ± 0.052	0.941 ± 0.016
UniProt Q9BQI3 and related entries	0.946 ± 0.014	0.935 ± 0.039	1.008 ± 0.0057	0.983 ± 0.016	0.989 ± 0.018	1.01 ± 0.037
UniProt Q9BTL3	0.9722 ± 0.0028	0.997 ± 0.0059	0.921 ± 0.052	0.924 ± 0.07	0.93 ± 0.061	0.923 ± 0.059
UniProt Q9BZ23 and related entries	0.978 ± 0.02	0.971 ± 0.02	0.9738 ± 0.0057	0.9781 ± 0.0054	0.9885 ± 0.007	0.978 ± 0.022
TM9SF2 (UniProt Q99805)	0.947 ± 0.11	0.882 ± 0.045	0.94 ± 0.046	0.925 ± 0.094	0.98 ± 0.053	0.873 ± 0.076
UniProt Q9BSC4 and related entries	0.986 ± 0.021	1.01 ± 0.044	0.989 ± 0.028	1.02 ± 0.021	1.03 ± 0.024	1.08 ± 0.055
UniProt Q9BVC4	1 ± 0.052	0.953 ± 0.033	0.949 ± 0.055	0.953 ± 0.067	0.959 ± 0.063	0.969 ± 0.052
MRPL32 (UniProt Q9BYC8)	0.983 ± 0.051	1.01 ± 0.014	0.9547 ± 0.0081	0.952 ± 0.036	0.942 ± 0.037	0.983 ± 0.017
ECSIT (UniProt Q9BQ95)	0.994 ± 0.013	0.953 ± 0.019	1 ± 0.019	1.01 ± 0.036	0.989 ± 0.018	0.992 ± 0.044
UniProt Q9BV29 and related entries	0.98852 ± 0.0009	1.02 ± 0.016	0.9655 ± 0.002	0.9884 ± 0.0029	0.961 ± 0.037	0.96 ± 0.038
DIDO1 (UniProt Q9BTC0)	1.1 ± 0.035	1.18 ± 0.093	1.23 ± 0.043	1.28 ± 0.12	1.27 ± 0.12	1.36 ± 0.12
PSMG3 (UniProt Q9BT73)	0.986 ± 0.06	0.98 ± 0.029	1.01 ± 0.05	1.01 ± 0.019	1.022 ± 0.0097	1.04 ± 0.023
UIMC1 (UniProt Q96RL1)	1.06 ± 0.033	1.11 ± 0.092	1.08 ± 0.04	1.07 ± 0.043	1.03 ± 0.051	1.1 ± 0.043
UniProt Q99447 and related entries	0.953 ± 0.019	0.896 ± 0.068	0.944 ± 0.012	0.927 ± 0.039	0.969 ± 0.027	0.888 ± 0.012

Looked up above.
NP40-soluble protein abundance (concentration: 4mM) with UniProt Q99447 and related entries reads 0.944 ± 0.012
NP40-soluble protein abundance (concentration: 1mM) with UniProt Q9BSC4 and related entries reads 0.986 ± 0.021
NP40-soluble protein abundance (concentration: 8mM) with PARK7 (UniProt Q99497) reads 0.926 ± 0.032
